Measurements published in article PMC9508122.

The chains behind the UniProt entries cited, without tags or fusion partners.
UniProt Q99873: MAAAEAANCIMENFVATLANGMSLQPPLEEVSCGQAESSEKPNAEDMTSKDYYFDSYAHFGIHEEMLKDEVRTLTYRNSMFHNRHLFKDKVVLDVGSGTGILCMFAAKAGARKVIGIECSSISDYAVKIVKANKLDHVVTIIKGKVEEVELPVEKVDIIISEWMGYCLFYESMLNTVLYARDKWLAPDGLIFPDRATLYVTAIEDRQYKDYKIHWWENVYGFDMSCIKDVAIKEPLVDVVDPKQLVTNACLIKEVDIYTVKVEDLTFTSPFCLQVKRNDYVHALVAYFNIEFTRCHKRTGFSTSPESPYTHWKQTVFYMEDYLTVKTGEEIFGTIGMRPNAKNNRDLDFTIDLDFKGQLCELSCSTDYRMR

Molecular target: T1, TIPE1-3×FLAG (tumor necrosis factor alpha-induced protein 8-like protein 1) (UniProt Q8WVP5)
T1 sequence: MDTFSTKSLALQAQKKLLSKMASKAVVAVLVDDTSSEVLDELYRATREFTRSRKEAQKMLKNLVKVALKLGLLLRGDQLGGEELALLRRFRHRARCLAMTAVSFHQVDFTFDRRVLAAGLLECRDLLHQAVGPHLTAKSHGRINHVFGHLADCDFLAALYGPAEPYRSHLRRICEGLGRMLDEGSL
Experiment: affinity purification with mass spectrometry; lysate of MNNG/HOS Cl #5 cells 48 h after TIPE1-3×FLAG lentivirus; FLAG-conjugated beads, washed 8 times with RIPA buffer, eluted with 3×FLAG peptide; SDS-PAGE bands analysed by LC-MS/MS; control without TIPE1-3×FLAG

## Protein arginine N-methyltransferase 1 (PRMT1), endogenous (from UniProt Q99873 1-371) (enzyme)
  binding: binds

Results are given in words; binding and its absence hold for the method and conditions named. Binding seen in cells or lysates may run through a third protein. A yes stands for co-enrichment or nearness to the bait. Other partners may have been found. Sequences can lack the tags named with a protein.
